Data as given in PMC9114391.
No constants are given. Whether binding was seen depends on the method and setting. Some results given as binding are weak or reduced against the parent protein; the word gives no strength.

The chains behind the UniProt entries cited, without tags or fusion partners.
UniProt Q07335: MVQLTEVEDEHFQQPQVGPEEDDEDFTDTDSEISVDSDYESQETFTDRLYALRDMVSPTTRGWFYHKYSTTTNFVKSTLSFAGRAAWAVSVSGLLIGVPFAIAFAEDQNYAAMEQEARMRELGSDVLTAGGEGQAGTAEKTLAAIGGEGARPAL
UniProt P24391: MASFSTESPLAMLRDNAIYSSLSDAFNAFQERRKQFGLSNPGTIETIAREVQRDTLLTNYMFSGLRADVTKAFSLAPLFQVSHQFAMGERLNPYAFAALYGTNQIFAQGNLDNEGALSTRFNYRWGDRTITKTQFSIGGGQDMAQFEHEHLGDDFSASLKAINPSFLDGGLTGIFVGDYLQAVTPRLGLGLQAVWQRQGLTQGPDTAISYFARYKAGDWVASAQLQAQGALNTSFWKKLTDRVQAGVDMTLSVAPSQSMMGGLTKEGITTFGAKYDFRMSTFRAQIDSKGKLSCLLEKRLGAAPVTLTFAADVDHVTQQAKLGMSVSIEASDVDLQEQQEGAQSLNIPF
UniProt Q7SG90: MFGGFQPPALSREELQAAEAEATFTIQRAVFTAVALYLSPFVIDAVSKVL

Target: Tom22 with a hexahistidine tag at the C-terminus (Neurospora crassa) (UniProt Q07335)
Assay: co-purification (Ni-NTA affinity and anion exchange chromatography, SDS-PAGE with Coomassie staining); mitochondria solubilised in 1% n-dodecyl-β-D-maltoside, 20% glycerol, 300 mM NaCl, 20 mM imidazole, 20 mM Tris-HCl pH 8.5; His-tagged Tom22 held on Ni-NTA, eluted with 300 mM imidazole; then Resource Q, 0-500 mM KCl

| binding | Substance |
| --- | --- |
| binds | Tom40 (from UniProt P24391 1-349) |
| binds | Tom5 (from UniProt Q7SG90 1-50) |
